# Assay results reported in patent US12214015B2, “Use of c-type natriuretic peptide variants to treat osteoarthritis” (priority 2015, dated 2025).
# At least one peptide structure holds a part that was inferred or is arguable (an end, a ring closure or a residue). Marks after values point to notes of the source that are not given here.
# Key:
# Isoelectric point (pI) = type: physicochemical
# [1] = tested on: medial meniscal tear-induced osteoarthritis; test: Gait analysis in rat meniscal tear osteoarthritis model (Example 2); type: in vivo; details: SC vs vehicle on Day 8; significant
# [2] = tested on: medial meniscal tear-induced osteoarthritis; test: Rat medial meniscal tear osteoarthritis model, knee histopathology (Example 2, IA or SC); type: in vivo; details: for reduction of total cartilage degeneration width (tibia): significant
# [3] = tested on: later stage rat meniscal tear-induced osteoarthritis; test: Late stage rat meniscal tear osteoarthritis model, knee histopathology (Example 3, dosing from Day 21); type: in vivo
# [4] = 35.5 μg IA vs IA vehicle, non-significant
# [5] = 35.5 μg IA, lesions generally minimal or mild
# [6] = 105 μg IA vs IA vehicle, significant
# [7] = Group 2: 105 μg IA, 1x (d21), necropsy Day 22, mean
# [8] = Group 4: 150 μg/kg SC, 1x (d21), necropsy Day 22, mean
# [9] = Group 7: 35.5 μg IA, TIWx3W, necropsy Day 40, mean
# [10] = Group 8: IA, TIWx3W, necropsy Day 40, mean
# [11] = Group 10: (50 μg) SC, QDx3W, necropsy Day 40, mean
# [12] = Group 11: (150 μg) SC, QDx3W, necropsy Day 40, mean
smiles,measurement,setting,value
CC[C@H](C)[C@@H]1NC(=O)[C@H](CCCNC(=N)N)NC(=O)[C@H](CC(=O)O)NC(=O)[C@H](CC(C)C)NC(=O)[C@H](CCCCN)NC(=O)[C@H](CC(C)C)NC(=O)CNC(=O)[C@H](Cc2ccccc2)NC(=O)[C@@H](NC(=O)CNC(=O)[C@H](CCCCN)NC(=O)[C@H](CO)NC(=O)[C@H](CC(C)C)NC(=O)CN)CSSC[C@@H](C(=O)O)NC(=O)CNC(=O)[C@H](CC(C)C)NC(=O)CNC(=O)[C@H](CO)NC(=O)[C@H](CCSC)NC(=O)[C@H](CO)NC(=O)CNC1=O [CNP-22],pI,Isoelectric point (pI),8.9
CC[C@H](C)[C@@H]1NC(=O)[C@H](CCCNC(=N)N)NC(=O)[C@H](CC(=O)O)NC(=O)[C@H](CC(C)C)NC(=O)[C@H](CCCCN)NC(=O)[C@H](CC(C)C)NC(=O)CNC(=O)[C@H](Cc2ccccc2)NC(=O)[C@@H](NC(=O)CNC(=O)[C@H](CCCCN)NC(=O)[C@H](CO)NC(=O)[C@H](CC(C)C)NC(=O)CNC(=O)[C@H](CCCCN)NC(=O)[C@H](CCCCN)NC(=O)[C@H](CC(N)=O)NC(=O)[C@H](C)NC(=O)CNC(=O)[C@H](CCCCN)NC(=O)[C@H](Cc2ccc(O)cc2)NC(=O)[C@H](CCCCN)NC(=O)[C@H](CCCNC(=N)N)NC(=O)[C@H](C)NC(=O)[C@H](CC(N)=O)NC(=O)[C@@H]2CCCN2C(=O)[C@H](Cc2c[nH]cn2)NC(=O)[C@H](CCC(=O)O)NC(=O)[C@H](CCC(N)=O)NC(=O)CNC(=O)[C@@H]2CCCN2)CSSC[C@@H](C(=O)O)NC(=O)CNC(=O)[C@H](CC(C)C)NC(=O)CNC(=O)[C@H](CO)NC(=O)[C@H](CCSC)NC(=O)[C@H](CO)NC(=O)CNC1=O [Pro-Gly-CNP-37],reduction of gait score,[1],48%
same,medial and lateral growth plate thickness,[2]; 35.5 μg IA,significantly larger
same,reduction in Medial Tibial Osteophyte Score,[2]; 35.5 μg IA,15%
same,total joint score (without femur),[2]; 35.5 μg IA,significant reduction
same,reduction of total cartilage degeneration width (tibia),"[2]; 35.5 μg IA (middle dose), TIWx3W",approximately 26%
same,reduction in Substantial Cartilage Degeneration width,"[2]; 35.5 μg IA, TIWx3W",32%
same,medial and lateral growth plate thickness,[2]; 105 μg IA,significantly larger
same,reduction in Medial Tibial Osteophyte Score,[2]; 105 μg IA,14%
same,total joint score (without femur),[2]; 105 μg IA,significant reduction
same,reduction of total cartilage degeneration width (tibia),"[2]; 105 μg IA (high dose), TIWx3W",~32%
same,reduction in Substantial Cartilage Degeneration width,"[2]; 105 μg IA, TIWx3W",36%
same,reduction in Substantial Cartilage Degeneration width,"[2]; 150 μg/kg SC daily for three weeks, statistically significant",42%
same,effects on histopathology lesions of medial meniscal tear-induced osteoarthritis,"[2]; IA, Pro-Gly-CNP-37 35.5 and 105 μg, Gly-CNP-37 105 μg",significant beneficial effects
same,total joint score (minus femur),[2]; SC,Significant reduction
same,reduction in Medial Tibial Osteophyte Score,"[2]; SC (150 μg/kg QDx3W), p<0.05 t-test",26%
same,medial and lateral growth plate thickness,[2]; SC vs vehicle,larger
same,decrease in total joint score with femur,[3]; 35.5 μg IA,7%
same,decrease in total joint score without femur,[3]; 35.5 μg IA,11%
same,reduction of substantial tibial cartilage degeneration widths,[3]; [4],30%
same,reduction of tibial cartilage degeneration summed scores,[3]; [4],20%
same,reduction of zone-2 tibial cartilage degeneration scores,"[3]; 35.5 μg IA vs IA vehicle, significant",31%
same,zone-1 femoral cartilage degeneration scores,[3]; [5],increased significantly
same,zone-3 medial tibial cartilage degeneration scores,[3]; [5],increased significantly
same,decrease in total joint score with femur,[3]; 105 μg IA,19%
same,decrease in total joint score without femur,[3]; 105 μg IA,21%
same,mean tibial cartilage degeneration (FIG. 20),[3]; 105 μg IA,decrease
same,reduction of substantial tibial cartilage degeneration widths,"[3]; 105 μg IA vs IA vehicle, non-significant",38%
same,reduction of summed medial tibial cartilage degeneration,[3]; [6],31%
same,reduction of total tibial cartilage degeneration widths,[3]; [6],28%
same,reduction of zone-2 medial tibial cartilage degeneration,[3]; [6],44%
same,reduction of zone-3 medial tibial cartilage degeneration,[3]; [6],93%
same,decrease in total joint score with femur,[3]; 150 μg/kg SC,7%
same,decrease in total joint score without femur,[3]; 150 μg/kg SC,10%
same,difference between medial and lateral growth plate thickness,[3]; 150 μg/kg SC,significant reduction
same,mean tibial cartilage degeneration (FIG. 20),[3]; 150 μg/kg SC,decrease
same,medial and lateral growth plate thickness,[3]; 150 μg/kg SC,significantly increased
same,reduction of substantial tibial cartilage degeneration widths,"[3]; 150 μg/kg SC vs SC vehicle, non-significant",16%
same,reduction of total tibial cartilage degeneration widths,"[3]; 150 μg/kg SC vs SC vehicle, significant",22%
same,effect in later stage osteoarthritis by knee histopathology,[3]; 35.5 or 105 μg IA TIWx3W and 150 μg/kg SC QDx3W,slight to significant beneficial effect
same,Osteophyte Measurement,[3]; [7],402.78 μm
same,Substantial Tibial CD Width,[3]; [7],480.56 μm
same,Total Joint Score w/ Femur,[3]; [7],8.97
same,Total Tibial CD Score,[3]; [7],4.81
same,Total Tibial CD Width,[3]; [7],1694.44 μm
same,Osteophyte Measurement,[3]; [8],383.33 μm
same,Substantial Tibial CD Width,[3]; [8],572.22 μm
same,Total Joint Score w/ Femur,[3]; [8],8.86
same,Total Tibial CD Score,[3]; [8],5.14
same,Total Tibial CD Width,[3]; [8],1550.00 μm
same,Osteophyte Measurement,[3]; [9],452.78 μm
same,Substantial Tibial CD Width,[3]; [9],358.33 μm
same,Total Joint Score w/ Femur,[3]; [9],8.44
same,Total Tibial CD Score,[3]; [9],3.96
same,Total Tibial CD Width,[3]; [9],1605.56 μm
same,Osteophyte Measurement,[3]; [10],423.61 μm
same,Substantial Tibial CD Width,[3]; [10],313.89 μm
same,Total Joint Score w/ Femur,[3]; [10],7.38
same,Total Tibial CD Score,[3]; [10],3.43*
same,Total Tibial CD Width,[3]; [10],1200.00* μm
same,Substantial Tibial CD Width,[3]; [11],498.61 μm
same,Total Joint Score w/ Femur,[3]; [11],9.82
same,Total Tibial CD Score,[3]; [11],4.83
same,Total Tibial CD Width,[3]; [11],1847.22 μm
same,Osteophyte Measurement,"[3]; Group 10: (50 μg) SC, QDx3W, necropsy Day 40, mean (SE)",473.61(0.41) μm
same,Osteophyte Measurement,[3]; [12],444.44 μm
same,Substantial Tibial CD Width,[3]; [12],443.06 μm
same,Total Joint Score w/ Femur,[3]; [12],9.03
same,Total Tibial CD Score,[3]; [12],4.43
same,Total Tibial CD Width,[3]; [12],1375.00* μm
same,medial tibial cartilage degeneration depth ratios (FIG. 23),[3]; administered IA,statistically significant reduction
same,medial tibial cartilage degeneration scores (FIG. 22),[3]; administered IA,statistically significant reduction
same,osteophyte score (FIG. 26),[3]; all doses and administration routes,modest effects
same,substantial tibial cartilage degeneration (FIG. 21),[3]; both IA treatment doses and the highest SC dose,decreased
